Source: PubChem BioAssay AID504749 (NCATS, 2011).

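A panel of P. falciparum strains inside erythrocytes is exposed to compounds for three days, then a DNA-binding dye reports the amount of parasite DNA.
Each compound was titrated across a series from about 0.000037 to 29 µM.
The number is the fitted AC50, the concentration giving a half-maximal change in signal; a lower value means higher potency, whether the curve shows a decrease or an increase.
Calls follow the curve class and fit quality: every row here is inconclusive, covering signal-raising curves and weak, poorly fitted, partial or highest-dose-only inhibition curves.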

Values are in nM.
Every entry below has the call inconclusive.
Only part of the assay is shown, chiefly results filed as inconclusive.
A potency from a partial, single-point or poor curve is only a rough figure.

| SMILES | setting | potency (nM) | remark |
|---|---|---|---|
| `CCOc1ccccc1O[C@@H](c1ccccc1)[C@@H]1CNCCO1` | GB4 | 15101 | inhibitor, partial curve |
| `CCOc1ccccc1O[C@@H](c1ccccc1)[C@@H]1CNCCO1` | ATS95 | 12589 | inhibitor, partial curve |
| `CCOc1ccccc1O[C@@H](c1ccccc1)[C@@H]1CNCCO1` | TAB113 | 10000 | inhibitor, partial curve |
| `CCOc1ccccc1O[C@@H](c1ccccc1)[C@@H]1CNCCO1` | CP237 | 11220 | inhibitor, single point |
| `CCOc1ccccc1O[C@@H](c1ccccc1)[C@@H]1CNCCO1` | CP252 | 7080 | inhibitor, partial curve |
| `CCOc1ccccc1O[C@@H](c1ccccc1)[C@@H]1CNCCO1` | parasite line B | 17782 | inhibitor, single point |
| `CCOc1ccccc1O[C@@H](c1ccccc1)[C@@H]1CNCCO1` | P94_40 | 7080 | inhibitor, partial curve |
| `CCOc1ccccc1O[C@@H](c1ccccc1)[C@@H]1CNCCO1` | CP194 | 7569 | inhibitor, partial curve |
| `CCOc1ccccc1O[C@@H](c1ccccc1)[C@@H]1CNCCO1` | CP297 | 11995 | inhibitor, single point |
| `CCOc1ccccc1O[C@@H](c1ccccc1)[C@@H]1CNCCO1` | CP286 | 5623 | inhibitor, partial curve |
| `CCOc1ccccc1O[C@@H](c1ccccc1)[C@@H]1CNCCO1` | PC26 | 3793 | inhibitor, partial curve |
| `CCOc1ccccc1O[C@@H](c1ccccc1)[C@@H]1CNCCO1` | CP265 | 10000 | inhibitor, partial curve |
| `CCN1CCC[C@H]1CNC(=O)c1c(OC)ccc(Br)c1OC` | DIV17 | 13459 | inhibitor, single point |
| `CCN1CCC[C@H]1CNC(=O)c1c(OC)ccc(Br)c1OC` | DIV14 | 13459 | inhibitor, single point |
| `CCN1CCC[C@H]1CNC(=O)c1c(OC)ccc(Br)c1OC` | CP237 | 11220 | inhibitor, single point |
| `CCN1CCC[C@H]1CNC(=O)c1c(OC)ccc(Br)c1OC` | GB4 | 9528 | inhibitor, partial curve |
| `CCN1CCC[C@H]1CNC(=O)c1c(OC)ccc(Br)c1OC` | W2 | 5358 | inhibitor, partial curve, poor fit |
| `CCN1CCC[C@H]1CNC(=O)c1c(OC)ccc(Br)c1OC` | AA1029 | 14125 | inhibitor, single point |
| `CCN1CCC[C@H]1CNC(=O)c1c(OC)ccc(Br)c1OC` | CP247 | 3548 | inhibitor, partial curve, poor fit |
| `CCN1CCC[C@H]1CNC(=O)c1c(OC)ccc(Br)c1OC` | CP297 | 9528 | inhibitor, partial curve |
| `C/C(=C(/CCOC(=O)C(C)C)SS/C(CCOC(=O)C(C)C)=C(\C)N(C=O)Cc1cnc(C)nc1N)N(C=O)Cc1cnc(C)nc1N` | DFO2036 | 354.8 | inhibitor, full curve, poor fit |
| `C/C(=C(/CCOC(=O)C(C)C)SS/C(CCOC(=O)C(C)C)=C(\C)N(C=O)Cc1cnc(C)nc1N)N(C=O)Cc1cnc(C)nc1N` | parasite line A | 281.8 | inhibitor, partial curve, poor fit |
| `C/C(=C(/CCOC(=O)C(C)C)SS/C(CCOC(=O)C(C)C)=C(\C)N(C=O)Cc1cnc(C)nc1N)N(C=O)Cc1cnc(C)nc1N` | CP191 | 5012 | inhibitor, partial curve |
| `C/C(=C(/CCOC(=O)C(C)C)SS/C(CCOC(=O)C(C)C)=C(\C)N(C=O)Cc1cnc(C)nc1N)N(C=O)Cc1cnc(C)nc1N` | GB4 | 5358 | inhibitor, partial curve, poor fit |
| `CCN1CCC[C@@H](OC(=O)C(c2ccccc2)c2ccccc2)C1` | AA1029 | 3981 | inhibitor, partial curve |
| `CCN1CCC[C@@H](OC(=O)C(c2ccccc2)c2ccccc2)C1` | CP185 | 3548 | inhibitor, partial curve |
| `CCN1CCC[C@@H](OC(=O)C(c2ccccc2)c2ccccc2)C1` | CP335 | 5103 | inhibitor, partial curve, poor fit |
| `CCN1CCC[C@@H](OC(=O)C(c2ccccc2)c2ccccc2)C1` | DIV14 | 4548 | inhibitor, partial curve |
| `CCN1CCC[C@@H](OC(=O)C(c2ccccc2)c2ccccc2)C1` | CP265 | 7080 | inhibitor, single point |
| `CCN1CCC[C@@H](OC(=O)C(c2ccccc2)c2ccccc2)C1` | CP256 | 3162 | inhibitor, partial curve |
| `CCN1CCC[C@@H](OC(=O)C(c2ccccc2)c2ccccc2)C1` | PC15 | 1585 | inhibitor, partial curve |
| `CCN1CCC[C@@H](OC(=O)C(c2ccccc2)c2ccccc2)C1` | CP194 | 6424 | inhibitor, single point |
| `CCN1CCC[C@@H](OC(=O)C(c2ccccc2)c2ccccc2)C1` | PC26 | 2869 | inhibitor, partial curve, poor fit |
| `CCN1CCC[C@@H](OC(=O)C(c2ccccc2)c2ccccc2)C1` | Dd2 | 2818 | inhibitor, partial curve |
| `CCN1CCC[C@@H](OC(=O)C(c2ccccc2)c2ccccc2)C1` | CP215 | 5726 | inhibitor, single point |
| `CCN1CCC[C@@H](OC(=O)C(c2ccccc2)c2ccccc2)C1` | GB4 | 2031 | inhibitor, partial curve |
| `CCN1CCC[C@@H](OC(=O)C(c2ccccc2)c2ccccc2)C1` | P93_24 | 2818 | inhibitor, partial curve |
| `CCN1CCC[C@@H](OC(=O)C(c2ccccc2)c2ccccc2)C1` | DIV17 | 4548 | inhibitor, partial curve |
| `CCN1CCC[C@@H](OC(=O)C(c2ccccc2)c2ccccc2)C1` | CP252 | 5012 | inhibitor, partial curve, poor fit |
| `CCN1CCC[C@@H](OC(=O)C(c2ccccc2)c2ccccc2)C1` | N140 | 4467 | inhibitor, partial curve |
| `CCN1CCC[C@@H](OC(=O)C(c2ccccc2)c2ccccc2)C1` | TAB109 | 3548 | inhibitor, single point |
| `CCN1CCC[C@@H](OC(=O)C(c2ccccc2)c2ccccc2)C1` | ICS | 7080 | inhibitor, single point |
| `CCN1CCC[C@@H](OC(=O)C(c2ccccc2)c2ccccc2)C1` | CP325 | 5726 | inhibitor, partial curve, poor fit |
| `CCN1CCC[C@@H](OC(=O)C(c2ccccc2)c2ccccc2)C1` | ATS189 | 2512 | inhibitor, partial curve |
| `CCN1CCC[C@@H](OC(=O)C(c2ccccc2)c2ccccc2)C1` | P94_40 | 3548 | inhibitor, single point |
| `CCN1CCC[C@@H](OC(=O)C(c2ccccc2)c2ccccc2)C1` | DIV30 | 1282 | inhibitor, partial curve, poor fit |
| `CCN1CCC[C@@H](OC(=O)C(c2ccccc2)c2ccccc2)C1` | PAD | 3162 | inhibitor, partial curve |

Some entries from above, unchanged:

SMILES,setting,potency (nM),remark
CCN1CCC[C@@H](OC(=O)C(c2ccccc2)c2ccccc2)C1,PAD,3162,"inhibitor, partial curve"
CCN1CCC[C@H]1CNC(=O)c1c(OC)ccc(Br)c1OC,DIV17,13459,"inhibitor, single point"
CCOc1ccccc1O[C@@H](c1ccccc1)[C@@H]1CNCCO1,CP252,7080,"inhibitor, partial curve"
CCOc1ccccc1O[C@@H](c1ccccc1)[C@@H]1CNCCO1,CP194,7569,"inhibitor, partial curve"
CCN1CCC[C@H]1CNC(=O)c1c(OC)ccc(Br)c1OC,GB4,9528,"inhibitor, partial curve"